Data source: PubChem BioAssay AID1259254 (NCATS, 2017)

- Aim: 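Finding genes that stop cells copying their DNA twice in one cycle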 (primary screen)
- System: human HCT116 colorectal cancer cells
- Knock-down reagent: single siRNA against human genes
- Timing: 3 days
- Detection: 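Nuclei stained with Hoechst and imaged; cell-cycle phase assigned by DNA content; G2 share scaled per plate, non-targeting siRNA 0%, GMNN siRNA 100%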
- Direction: G2 robust z-score: higher = more G2 cells, more excess DNA replication
- Hit rule: 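An siRNA counts as active if its G2 robust z-score lies at least 5 MADs above the screen median; here such calls match roughly 38% of GMNN control or more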
The deposit covers about 59,000 reagents; below is an unselected part. About 1,550 of all reagents (2.6%) were called active. 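G2 share is only a proxy for re-replication; each gene was hit by three separate siRNAs, and active genes were retested.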 Reagents against one gene are numbered here. Further read-outs or replicates are left out here. Not stated in the record: the amount of reagent.

G2 robust z-score, by target and reagent
WDR20 (WD repeat domain 20): #1 0.45 inactive; #2 1.15 inactive; #3 -0.715 inactive
POLR2J2 (RNA polymerase II subunit J2): #1 -0.163 inactive; #2 -0.703 inactive; #3 -1.01 inactive
C11orf40 (chromosome 11 putative open reading frame 40): #1 1.22 inactive; #2 0.594 inactive; #3 0.359 inactive
CARF (calcium responsive transcription factor): #1 -0.542 inactive; #2 0.187 inactive; #3 1.68 inactive; #4 0.229 inactive; #5 -0.471 inactive; #6 -0.281 inactive
KCNA5 (potassium voltage-gated channel subfamily A member 5): #1 0.255 inactive; #2 -0.583 inactive; #3 1.71 inactive
SLC30A8: #1 -0.921 inactive; #2 3.28 inactive; #3 -0.276 inactive
IRAK2 (interleukin 1 receptor associated kinase 2): #1 1.22 inactive; #2 1.59 inactive; #3 -0.631 inactive
MAGEC1 (MAGE family member C1): #1 4.21 inactive; #2 -0.306 inactive; #3 -0.52 inactive
LOC388282: #1 -0.634 inactive; #2 9.29 active; #3 1.01 inactive
DCBLD2 (discoidin, CUB and LCCL domain containing 2): #1 -0.411 inactive; #2 0.768 inactive; #3 0.296 inactive
C9orf152 (chromosome 9 open reading frame 152): #1 -0.73 inactive; #2 0.531 inactive; #3 -0.138 inactive
ZNF385D (zinc finger protein 385D): #1 0.155 inactive; #2 -1.39 inactive; #3 1.21 inactive
NDUFB10 (NADH:ubiquinone oxidoreductase subunit B10): #1 1.31 inactive; #2 -0.795 inactive; #3 -1.22 inactive
UCP1 (uncoupling protein 1): #1 -0.132 inactive; #2 -0.229 inactive; #3 -1.2 inactive
ERC1 (ELKS/RAB6-interacting/CAST family member 1): #1 -0.339 inactive; #2 -0.539 inactive; #3 4.39 inactive
CHST15 (carbohydrate sulfotransferase 15): #1 3.82 inactive; #2 -0.533 inactive; #3 -0.0771 inactive
ARHGAP31 (Rho GTPase activating protein 31): #1 0.317 inactive; #2 0.0642 inactive; #3 3.06 inactive
COX7A2 (cytochrome c oxidase subunit 7A2): #1 -0.991 inactive; #2 -0.708 inactive; #3 1.51 inactive
DNAAF5 (dynein axonemal assembly factor 5): #1 -0.276 inactive; #2 -0.253 inactive; #3 -0.662 inactive
MYL6P5 (MYL6 pseudogene 5): #1 -0.128 inactive; #2 1.41 inactive; #3 -0.994 inactive
SRRM1 (serine and arginine repetitive matrix 1): #1 -0.0221 inactive; #2 0.359 inactive; #3 -1.09 inactive
IDE (insulin degrading enzyme): #1 2.5 inactive; #2 -1.03 inactive; #3 -0.505 inactive

Look-ups from above.
COX7A2 (cytochrome c oxidase subunit 7A2) #2, outcome = inactive
Result for DNAAF5 (dynein axonemal assembly factor 5) #1 in “G2 robust z-score”: -0.276
Entry for SRRM1 (serine and arginine repetitive matrix 1) #2 under “G2 robust z-score”: 0.359
DNAAF5 (dynein axonemal assembly factor 5) #2, outcome → inactive
Value of CARF (calcium responsive transcription factor) #3 in “G2 robust z-score”: 1.68
Under “outcome”, CARF (calcium responsive transcription factor) #4 reads inactive
